Here are results for one molecule from paper PMC9247573 (Frontiers in Microbiology, 2022).

Results are given in words; binding and its absence hold for the method and conditions named. Some entries that bind do so weakly or less than the wild type.

The experiment concerns the target Escherichia coli pseudouridine kinase PsuK (E. coli BL21 (DE3)) (UniProt P30235). Briefly: crystal structure; space group P6_(3)22, one molecule in the asymmetric unit; the homodimer is formed with the adjacent asymmetric unit (crystallographic symmetry); apo, with pseudouridine and with N1-methyl-pseudouridine; both purified.

B1: Escherichia coli pseudouridine kinase PsuK (enzyme, E. coli BL21 (DE3), UniProt P30235 1-313, looked up)
chain: MREKDYVVIIGSANIDVAGYSHESLNYADSNPGKIKFTPGGVGRNIAQNLALLGNKAWLLSAVGSDFYGQSLLTQTNQSGVYVDKCLIVPGENTSSYLSLLDNTGEMLVAINDMNISNAITAEYLAQHGEFIQRAKVIVADCNISEEALAWILDNAANVPVFVDPVSAWKCVKVRDRLNQIHTLKPNRLEAETLSGIALSGREDVAKVAAWFHQHGLNRLVLSMGGDGVYYSDISGESGWSAPIKTNVINVTGAGDAMMAGLASCWVDGMPFAESVRFAQGCSSMALSCEYTNNPDLSIANVISLVENAECLN
notes: E. coli pseudouridine kinase PsuK (YeiC), amplified from the E. coli BL21 (DE3) genome, Uniprot ID A0A140N873, aa 1-313 (313 residues, calculated 33.6 kDa); modelled from Arg2 to Asn308 in the apo structure; Cloned by BamHI and XhoI into a modified pET-28a with an Ulp1 cleavage site; also called EcPsuK; YeiC; source: E. coli BL21 (DE3), purified (Ni-NTA, Ulp1 cleavage, second Ni-NTA, Superdex …)
For the molecule B1, the binding result is “binds”.
